The values that follow come from patent US20210198329A1 (PASTEUR INSTITUTE OF IRAN, published 2021).

By UniProt entry, the sequences of proteins in these tests, tags left out. Residues count along the entry.
UniProt O75581, residues 20-1370: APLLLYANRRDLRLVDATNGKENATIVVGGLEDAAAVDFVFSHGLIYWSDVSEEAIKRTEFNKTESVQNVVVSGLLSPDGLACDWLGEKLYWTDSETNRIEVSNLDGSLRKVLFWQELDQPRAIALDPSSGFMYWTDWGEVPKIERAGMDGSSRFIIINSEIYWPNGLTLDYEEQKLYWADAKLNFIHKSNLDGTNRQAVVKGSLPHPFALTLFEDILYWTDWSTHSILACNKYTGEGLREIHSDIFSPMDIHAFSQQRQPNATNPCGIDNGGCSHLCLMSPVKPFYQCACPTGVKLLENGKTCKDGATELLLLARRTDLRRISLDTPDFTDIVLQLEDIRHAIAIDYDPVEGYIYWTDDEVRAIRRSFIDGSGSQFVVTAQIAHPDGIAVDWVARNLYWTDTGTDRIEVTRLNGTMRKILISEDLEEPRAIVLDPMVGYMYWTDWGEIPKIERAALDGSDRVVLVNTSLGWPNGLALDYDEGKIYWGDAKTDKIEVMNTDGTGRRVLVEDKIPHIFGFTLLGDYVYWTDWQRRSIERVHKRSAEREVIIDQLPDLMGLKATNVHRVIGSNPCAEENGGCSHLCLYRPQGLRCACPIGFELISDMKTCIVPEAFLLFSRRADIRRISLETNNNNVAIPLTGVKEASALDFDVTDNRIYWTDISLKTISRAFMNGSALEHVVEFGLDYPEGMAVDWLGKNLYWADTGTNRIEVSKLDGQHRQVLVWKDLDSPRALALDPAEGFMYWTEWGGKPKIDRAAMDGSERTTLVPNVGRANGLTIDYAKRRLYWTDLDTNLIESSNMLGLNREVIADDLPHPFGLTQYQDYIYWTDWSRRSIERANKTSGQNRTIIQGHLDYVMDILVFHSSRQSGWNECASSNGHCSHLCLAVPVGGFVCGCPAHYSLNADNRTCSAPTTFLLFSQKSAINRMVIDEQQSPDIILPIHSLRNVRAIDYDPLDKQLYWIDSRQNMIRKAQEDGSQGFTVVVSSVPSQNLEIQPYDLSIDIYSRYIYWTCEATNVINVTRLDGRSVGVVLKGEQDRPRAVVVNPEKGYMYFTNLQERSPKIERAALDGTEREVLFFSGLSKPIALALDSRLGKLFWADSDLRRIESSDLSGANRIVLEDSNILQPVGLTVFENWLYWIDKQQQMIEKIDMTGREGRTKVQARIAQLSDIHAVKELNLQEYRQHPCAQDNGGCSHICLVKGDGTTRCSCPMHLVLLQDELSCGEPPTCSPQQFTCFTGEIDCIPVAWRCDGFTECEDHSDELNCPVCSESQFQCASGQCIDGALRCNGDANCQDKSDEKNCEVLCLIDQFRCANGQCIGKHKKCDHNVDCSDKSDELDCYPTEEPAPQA

These are yes or no findings as the source states them, for the method shown. Some entries that bind do so weakly or less than the wild type.

The test concerns the target low-density lipoprotein receptor-related protein 6 (LRP6) (UniProt O75581). Briefly: LSPR spectroscopy; DKK1 immobilised on nanoparticles as ligand, LRP6 added as analyte; x axis is the LRP6 concentration (M), axis broken twice.

B1: Dickkopf-1 (DKK1) (ligand, UniProt O94907 32-266, looked up)
chain: TLNSVLNSNAIKNLPPPLGGAAGHPGSAVSAAPGILYPGGNKYQTIDNYQPYPCAEDEECGTDEYCASPTRGGDAGVQICLACRKRRKRCMRHAMCCPGNYCKNGICVSSDQNHFRGEIEETITESFGNDHSTLDGYSRRTTLSSKMYHTKGQEGSVCLRSSDCASGLCCARHFWSKICKPVLKEGQVCTKHRRKGSHGLEIFQRCYCGEGLSCRIQKDHHQASNSSRLHTCQRH
As to B1, the binding entry is recorded as “binds”.
